From the supplement of paper PMC6411743
± gives the standard deviation of the averaged measurements. The entries are a selection whose mix differs from that of the whole data set.

Protein sequences, listed by entry. Tags and fused reporters are not part of them. Lines headed by an entry give the natural chain unless they say otherwise; changes in a name come on top.
UniProt Q86W74: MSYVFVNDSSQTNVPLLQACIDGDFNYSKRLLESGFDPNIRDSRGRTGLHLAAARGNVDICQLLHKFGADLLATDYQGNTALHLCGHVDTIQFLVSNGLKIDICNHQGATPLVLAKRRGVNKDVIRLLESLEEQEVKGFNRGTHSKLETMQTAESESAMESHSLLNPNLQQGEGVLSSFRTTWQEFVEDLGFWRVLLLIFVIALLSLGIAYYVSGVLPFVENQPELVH
UniProt Q9NP61: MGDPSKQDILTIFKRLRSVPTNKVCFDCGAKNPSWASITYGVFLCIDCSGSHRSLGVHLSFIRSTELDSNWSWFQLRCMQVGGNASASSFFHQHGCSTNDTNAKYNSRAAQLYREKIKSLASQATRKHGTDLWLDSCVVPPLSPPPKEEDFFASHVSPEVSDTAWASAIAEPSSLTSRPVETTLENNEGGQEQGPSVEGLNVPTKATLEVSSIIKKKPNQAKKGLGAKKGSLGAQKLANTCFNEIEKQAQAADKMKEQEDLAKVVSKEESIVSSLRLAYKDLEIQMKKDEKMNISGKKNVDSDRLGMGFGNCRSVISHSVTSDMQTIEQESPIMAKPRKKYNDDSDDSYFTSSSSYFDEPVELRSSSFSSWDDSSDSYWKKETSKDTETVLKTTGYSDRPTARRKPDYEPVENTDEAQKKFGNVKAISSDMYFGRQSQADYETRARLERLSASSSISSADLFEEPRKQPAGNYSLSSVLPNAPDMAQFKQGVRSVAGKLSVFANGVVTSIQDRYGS
UniProt Q99933: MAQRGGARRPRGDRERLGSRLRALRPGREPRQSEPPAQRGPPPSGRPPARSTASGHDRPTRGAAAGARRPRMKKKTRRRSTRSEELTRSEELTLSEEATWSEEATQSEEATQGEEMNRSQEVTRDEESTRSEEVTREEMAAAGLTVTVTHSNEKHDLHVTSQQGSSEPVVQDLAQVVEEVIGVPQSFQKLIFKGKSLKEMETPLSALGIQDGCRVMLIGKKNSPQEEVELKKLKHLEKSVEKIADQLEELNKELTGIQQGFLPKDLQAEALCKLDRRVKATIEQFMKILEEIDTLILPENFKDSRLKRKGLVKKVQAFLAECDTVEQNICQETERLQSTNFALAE
UniProt Q96AB3: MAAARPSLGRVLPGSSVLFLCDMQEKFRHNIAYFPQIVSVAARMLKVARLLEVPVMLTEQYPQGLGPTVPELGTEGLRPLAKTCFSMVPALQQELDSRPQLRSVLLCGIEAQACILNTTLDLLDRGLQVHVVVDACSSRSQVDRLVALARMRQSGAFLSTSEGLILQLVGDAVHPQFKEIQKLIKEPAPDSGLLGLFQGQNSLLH
UniProt O75821, whole entry: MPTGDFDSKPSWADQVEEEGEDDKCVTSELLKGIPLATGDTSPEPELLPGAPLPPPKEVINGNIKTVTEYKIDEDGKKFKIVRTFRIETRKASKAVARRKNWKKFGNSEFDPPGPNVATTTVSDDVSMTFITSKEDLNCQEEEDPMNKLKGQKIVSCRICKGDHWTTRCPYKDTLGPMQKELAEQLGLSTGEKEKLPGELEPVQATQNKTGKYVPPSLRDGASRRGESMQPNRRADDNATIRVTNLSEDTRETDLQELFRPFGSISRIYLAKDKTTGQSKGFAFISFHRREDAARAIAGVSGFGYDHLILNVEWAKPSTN
UniProt P30260, whole entry: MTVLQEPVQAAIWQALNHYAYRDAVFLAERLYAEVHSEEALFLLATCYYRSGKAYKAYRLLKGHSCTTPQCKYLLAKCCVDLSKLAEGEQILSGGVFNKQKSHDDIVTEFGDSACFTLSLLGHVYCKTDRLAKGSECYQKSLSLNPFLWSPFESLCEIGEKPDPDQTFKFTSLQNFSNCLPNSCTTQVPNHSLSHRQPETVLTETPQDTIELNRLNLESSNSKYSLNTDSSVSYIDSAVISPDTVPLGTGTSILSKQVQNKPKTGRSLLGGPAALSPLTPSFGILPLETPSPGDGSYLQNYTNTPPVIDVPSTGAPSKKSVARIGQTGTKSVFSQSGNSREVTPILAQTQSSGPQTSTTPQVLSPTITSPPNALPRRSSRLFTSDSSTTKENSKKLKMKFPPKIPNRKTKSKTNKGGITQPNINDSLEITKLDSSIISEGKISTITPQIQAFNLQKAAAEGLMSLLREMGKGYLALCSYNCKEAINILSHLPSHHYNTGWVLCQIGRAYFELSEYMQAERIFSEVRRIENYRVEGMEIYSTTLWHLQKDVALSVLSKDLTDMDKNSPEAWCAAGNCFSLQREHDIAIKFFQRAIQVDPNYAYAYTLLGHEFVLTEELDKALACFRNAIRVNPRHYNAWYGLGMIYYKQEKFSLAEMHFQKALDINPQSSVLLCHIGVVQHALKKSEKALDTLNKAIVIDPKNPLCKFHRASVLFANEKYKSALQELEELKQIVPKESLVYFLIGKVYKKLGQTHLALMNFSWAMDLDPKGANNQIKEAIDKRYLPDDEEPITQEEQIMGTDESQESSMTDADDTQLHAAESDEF
UniProt P21359: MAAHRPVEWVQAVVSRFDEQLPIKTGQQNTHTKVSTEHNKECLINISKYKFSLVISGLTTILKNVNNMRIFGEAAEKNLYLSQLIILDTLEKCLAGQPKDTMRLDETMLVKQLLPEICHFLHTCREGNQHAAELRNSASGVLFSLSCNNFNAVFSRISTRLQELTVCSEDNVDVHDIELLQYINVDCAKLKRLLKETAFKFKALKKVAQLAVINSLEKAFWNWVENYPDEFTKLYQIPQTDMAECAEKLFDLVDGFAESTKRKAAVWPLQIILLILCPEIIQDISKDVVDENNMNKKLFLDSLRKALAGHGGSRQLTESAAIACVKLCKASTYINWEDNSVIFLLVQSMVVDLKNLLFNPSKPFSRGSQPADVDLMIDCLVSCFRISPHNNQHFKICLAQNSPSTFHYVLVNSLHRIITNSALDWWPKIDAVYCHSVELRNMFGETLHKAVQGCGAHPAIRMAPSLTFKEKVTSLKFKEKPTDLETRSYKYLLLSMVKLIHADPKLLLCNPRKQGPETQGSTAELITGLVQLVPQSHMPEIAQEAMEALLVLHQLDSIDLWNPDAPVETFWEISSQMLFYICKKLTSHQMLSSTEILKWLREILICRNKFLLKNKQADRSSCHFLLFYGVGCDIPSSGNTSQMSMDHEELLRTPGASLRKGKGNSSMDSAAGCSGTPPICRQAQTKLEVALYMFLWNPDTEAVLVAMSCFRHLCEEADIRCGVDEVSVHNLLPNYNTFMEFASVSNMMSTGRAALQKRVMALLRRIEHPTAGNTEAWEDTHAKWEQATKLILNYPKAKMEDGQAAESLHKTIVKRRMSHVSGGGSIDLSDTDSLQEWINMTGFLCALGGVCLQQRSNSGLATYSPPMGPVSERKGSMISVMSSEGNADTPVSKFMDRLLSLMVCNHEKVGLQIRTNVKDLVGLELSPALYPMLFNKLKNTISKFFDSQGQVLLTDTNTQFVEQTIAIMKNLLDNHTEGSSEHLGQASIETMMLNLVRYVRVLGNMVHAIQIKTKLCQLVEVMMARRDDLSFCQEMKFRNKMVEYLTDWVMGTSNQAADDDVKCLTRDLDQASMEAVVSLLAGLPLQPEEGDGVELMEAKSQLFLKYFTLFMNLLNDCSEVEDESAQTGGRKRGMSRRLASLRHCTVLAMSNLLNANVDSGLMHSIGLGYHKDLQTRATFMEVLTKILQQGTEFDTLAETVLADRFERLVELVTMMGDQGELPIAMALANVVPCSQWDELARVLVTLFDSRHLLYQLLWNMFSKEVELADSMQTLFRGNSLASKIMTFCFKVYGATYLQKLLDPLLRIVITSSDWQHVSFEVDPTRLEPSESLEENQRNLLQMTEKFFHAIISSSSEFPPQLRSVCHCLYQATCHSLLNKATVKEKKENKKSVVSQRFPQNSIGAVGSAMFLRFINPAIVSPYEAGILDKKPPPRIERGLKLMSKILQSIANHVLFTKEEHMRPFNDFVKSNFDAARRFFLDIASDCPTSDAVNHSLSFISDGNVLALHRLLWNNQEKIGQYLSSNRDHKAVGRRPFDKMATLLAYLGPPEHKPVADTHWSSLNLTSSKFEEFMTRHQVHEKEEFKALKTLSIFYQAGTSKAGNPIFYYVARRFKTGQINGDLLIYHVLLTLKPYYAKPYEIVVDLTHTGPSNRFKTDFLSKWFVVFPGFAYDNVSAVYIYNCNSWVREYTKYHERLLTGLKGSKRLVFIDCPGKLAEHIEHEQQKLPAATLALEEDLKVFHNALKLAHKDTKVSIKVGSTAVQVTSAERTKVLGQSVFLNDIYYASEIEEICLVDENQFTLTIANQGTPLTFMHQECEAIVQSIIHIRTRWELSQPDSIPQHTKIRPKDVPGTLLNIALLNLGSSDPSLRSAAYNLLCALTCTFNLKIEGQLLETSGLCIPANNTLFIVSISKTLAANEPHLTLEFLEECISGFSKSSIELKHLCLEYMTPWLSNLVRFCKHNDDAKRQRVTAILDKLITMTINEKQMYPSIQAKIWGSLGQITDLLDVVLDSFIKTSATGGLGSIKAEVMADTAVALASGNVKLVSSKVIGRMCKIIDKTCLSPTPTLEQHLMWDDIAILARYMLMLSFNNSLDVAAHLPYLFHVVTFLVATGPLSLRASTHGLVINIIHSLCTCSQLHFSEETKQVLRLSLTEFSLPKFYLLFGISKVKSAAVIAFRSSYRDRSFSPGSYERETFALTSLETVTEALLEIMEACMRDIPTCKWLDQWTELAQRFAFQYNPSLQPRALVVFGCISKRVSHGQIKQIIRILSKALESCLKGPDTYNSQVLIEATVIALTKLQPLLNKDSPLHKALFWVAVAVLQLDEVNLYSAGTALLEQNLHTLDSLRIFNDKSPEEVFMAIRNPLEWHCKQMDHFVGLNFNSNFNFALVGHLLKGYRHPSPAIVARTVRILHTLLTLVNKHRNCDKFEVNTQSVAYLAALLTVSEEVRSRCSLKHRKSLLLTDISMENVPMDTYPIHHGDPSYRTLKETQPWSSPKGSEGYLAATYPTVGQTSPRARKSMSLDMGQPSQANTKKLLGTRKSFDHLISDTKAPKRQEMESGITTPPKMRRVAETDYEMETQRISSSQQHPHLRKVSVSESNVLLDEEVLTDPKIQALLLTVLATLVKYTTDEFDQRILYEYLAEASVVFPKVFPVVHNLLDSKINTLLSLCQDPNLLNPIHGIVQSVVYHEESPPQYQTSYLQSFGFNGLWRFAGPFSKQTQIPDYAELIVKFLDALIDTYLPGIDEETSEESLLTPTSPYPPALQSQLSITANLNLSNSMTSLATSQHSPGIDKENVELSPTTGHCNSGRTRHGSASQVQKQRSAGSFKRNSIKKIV
UniProt Q86Y39: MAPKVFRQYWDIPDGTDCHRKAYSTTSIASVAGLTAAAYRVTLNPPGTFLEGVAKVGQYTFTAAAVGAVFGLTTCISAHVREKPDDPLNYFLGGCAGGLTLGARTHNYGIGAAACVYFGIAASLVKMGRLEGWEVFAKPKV
UniProt Q14CW9: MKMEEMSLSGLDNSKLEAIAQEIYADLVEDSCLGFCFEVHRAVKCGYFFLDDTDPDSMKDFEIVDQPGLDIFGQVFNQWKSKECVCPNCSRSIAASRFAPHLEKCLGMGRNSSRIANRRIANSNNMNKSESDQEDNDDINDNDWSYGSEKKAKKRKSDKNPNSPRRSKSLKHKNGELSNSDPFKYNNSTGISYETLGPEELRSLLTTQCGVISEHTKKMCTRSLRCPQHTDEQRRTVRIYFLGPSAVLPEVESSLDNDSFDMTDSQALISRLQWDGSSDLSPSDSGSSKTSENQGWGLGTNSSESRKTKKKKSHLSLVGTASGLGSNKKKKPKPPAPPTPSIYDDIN
UniProt Q8IXM2, whole entry, looked up: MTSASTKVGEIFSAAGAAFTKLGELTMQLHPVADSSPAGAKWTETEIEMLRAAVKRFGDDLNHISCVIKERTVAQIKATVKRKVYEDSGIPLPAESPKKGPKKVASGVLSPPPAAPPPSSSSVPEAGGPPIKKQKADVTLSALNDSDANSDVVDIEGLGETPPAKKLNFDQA
UniProt Q8NDF8: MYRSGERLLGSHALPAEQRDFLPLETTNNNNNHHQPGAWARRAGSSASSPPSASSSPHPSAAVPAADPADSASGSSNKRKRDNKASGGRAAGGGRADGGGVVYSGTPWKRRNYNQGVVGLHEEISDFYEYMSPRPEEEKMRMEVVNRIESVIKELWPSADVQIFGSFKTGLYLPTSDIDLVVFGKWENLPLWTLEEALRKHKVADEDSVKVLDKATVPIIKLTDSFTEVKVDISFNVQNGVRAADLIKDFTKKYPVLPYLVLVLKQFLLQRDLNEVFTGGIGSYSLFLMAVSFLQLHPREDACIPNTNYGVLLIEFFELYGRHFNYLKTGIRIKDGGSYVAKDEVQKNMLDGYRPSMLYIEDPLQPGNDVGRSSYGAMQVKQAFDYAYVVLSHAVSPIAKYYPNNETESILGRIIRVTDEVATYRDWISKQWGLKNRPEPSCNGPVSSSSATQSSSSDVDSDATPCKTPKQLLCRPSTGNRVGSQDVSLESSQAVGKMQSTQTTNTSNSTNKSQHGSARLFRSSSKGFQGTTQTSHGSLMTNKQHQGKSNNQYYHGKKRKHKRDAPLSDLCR

Compound: Nc1ncnc2c1ncn2[C@@H]1O[C@H](COP(=O)(O)OP(=O)(O)OP(=O)(O)O)[C@@H](O)[C@H]1O [adenosine triphosphate]
Test: NP40-soluble protein abundance relative to vehicle (solubility fold change) (ratio); higher = more soluble protein in presence of ATP
Method in brief: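 Each value is a fold change relative to the detergent-processed vehicle, calculated per replicate from vsn-normalised intensities. Jurkat crude lysate received eight concentrations (0.1 to 10 mM) for 10 min at room temperature and 3 min at 37 °C, then was solubilised in 0.8% NP40 with benzonase (60 min, 4 °C). The ultracentrifuged supernatant was TMT-labelled and run by LC-MS/MS in three independent experiments.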

Target	NP40-soluble protein abundance (concentration: 1mM)	NP40-soluble protein abundance (concentration: 2mM)	NP40-soluble protein abundance (concentration: 4mM)	NP40-soluble protein abundance (concentration: 6mM)	NP40-soluble protein abundance (concentration: 8mM)	NP40-soluble protein abundance (concentration: 10mM)
H0YLX2 and related entries (UniProt Q2KHR2)	0.988 ± 0.051	0.985 ± 0.024	0.98 ± 0.072	1 ± 0.044	0.957 ± 0.033	0.9555 ± 0.0038
J3KNN3 and related entries (UniProt P15735)	1.02 ± 0.1	0.941 ± 0.084	0.991 ± 0.053	0.886 ± 0.087	0.98 ± 0.13	0.923 ± 0.12
J3KP26 and related entries (UniProt Q86W74)	0.971 ± 0.099	1.02 ± 0.12	0.996 ± 0.054	0.975 ± 0.1	1 ± 0.14	0.988 ± 0.054
H7C1W4 and related entries (UniProt Q93075+H7C1W4)	0.984 ± 0.056	0.999 ± 0.14	1.18 ± 0.15	1.15 ± 0.17	1.14 ± 0.076	1.11 ± 0.024
H0Y6A0 and related entries (UniProt Q9NP61)	0.941 ± 0.025	0.9427 ± 0.0025	0.931 ± 0.016	0.965 ± 0.02	0.908 ± 0.028	0.922 ± 0.02
K7EQT1 and related entries (UniProt Q9UM11)	1.05 ± 0.076	1.04 ± 0.058	1.06 ± 0.12	1.02 ± 0.12	1.07 ± 0.11	1.12 ± 0.15
K7EMK7 and related entries (UniProt Q04725)	0.965 ± 0.12	1.07 ± 0.076	1.11 ± 0.094	1.03 ± 0.23	1.04 ± 0.11	1.04 ± 0.067
M0QXA7 and related entries (UniProt O95785)	0.981 ± 0.04	1.01 ± 0.05	0.997 ± 0.035	1.02 ± 0.037	0.988 ± 0.03	1.04 ± 0.025
K7ELL7 and related entries (UniProt P14314)	0.922 ± 0.02	0.907 ± 0.014	0.878 ± 0.016	0.921 ± 0.026	0.897 ± 0.037	0.877 ± 0.0098
J3QTA2 and related entries (UniProt Q99933)	0.999 ± 0.02	1.05 ± 0.053	1.07 ± 0.096	1.07 ± 0.076	1.03 ± 0.032	1.02 ± 0.053
K7EKW4 and related entries (UniProt Q96AB3)	0.963 ± 0.075	0.957 ± 0.1	0.94 ± 0.092	0.871 ± 0.13	0.925 ± 0.061	0.939 ± 0.059
H7C3X7 and related entries (UniProt Q2T9K0)	1.04 ± 0.13	0.999 ± 0.13	1.12 ± 0.069	0.984 ± 0.19	0.914 ± 0.097	0.985 ± 0.3
K7EL60 and related entries (UniProt O75821)	0.977 ± 0.046	1.01 ± 0.054	1.06 ± 0.061	1.19 ± 0.078	1.26 ± 0.049	1.39 ± 0.066
G5EA36 and related entries (UniProt P30260)	1.04 ± 0.04	0.984 ± 0.036	0.941 ± 0.042	0.993 ± 0.1	0.998 ± 0.082	0.974 ± 0.061
J3KSB5 and related entries (UniProt P21359)	1.06 ± 0.17	1.03 ± 0.03	1.06 ± 0.13	1.03 ± 0.045	1.06 ± 0.15	1.06 ± 0.03
H0Y4B0 and related entries (UniProt O43414)	1.09 ± 0.14	1.01 ± 0.07	1.03 ± 0.038	0.907 ± 0.11	0.975 ± 0.084	1.01 ± 0.037
K7EK78 and related entries (UniProt Q86Y39+K7EQ77+K7EP35+K7EMT4+K7EK78)	1.22 ± 0.33	1.22 ± 0.17	1.14 ± 0.34	1.29 ± 0.26	1.14 ± 0.1	1.13 ± 0.25
I3L121 and related entries (UniProt Q96AJ1)	1.01 ± 0.09	1.03 ± 0.17	1.01 ± 0.13	1.12 ± 0.2	0.985 ± 0.038	1.04 ± 0.14
H3BV23 and related entries (UniProt Q96S82)	0.925 ± 0.065	0.927 ± 0.068	0.92 ± 0.077	0.93 ± 0.092	0.889 ± 0.015	0.843 ± 0.087
H0YA20 and related entries (UniProt P52824)	0.999 ± 0.15	0.955 ± 0.086	0.993 ± 0.033	1.01 ± 0.043	1.05 ± 0.14	1.01 ± 0.12
H0Y5D5 and related entries (UniProt Q9ULV3)	0.941 ± 0.05	0.9655 ± 0.0055	0.963 ± 0.015	1.02 ± 0.021	0.957 ± 0.033	0.9573 ± 0.0065
K7EKG9 and related entries (UniProt Q14CW9)	0.969 ± 0.096	1.08 ± 0.052	1.07 ± 0.15	1.14 ± 0.082	1.07 ± 0.047	1.16 ± 0.17
J3QQ67 and related entries (UniProt Q07020)	1.05 ± 0.12	0.995 ± 0.17	1.01 ± 0.2	0.909 ± 0.18	0.847 ± 0.16	1.04 ± 0.18
H3BPB8 and related entries (UniProt P34949)	1.02 ± 0.026	1.07 ± 0.091	1.01 ± 0.032	1.03 ± 0.053	0.992 ± 0.017	0.997 ± 0.03
H0YIS7 and related entries (UniProt Q8IXM2+H0YIS7)	0.84 ± 0.13	0.884 ± 0.13	0.837 ± 0.089	0.833 ± 0.19	0.77 ± 0.034	0.824 ± 0.14
G5E9Q6 and related entries (UniProt P35080)	0.964 ± 0.029	1 ± 0.026	0.982 ± 0.034	0.948 ± 0.023	0.934 ± 0.021	0.966 ± 0.029
K7ELC7 and related entries (UniProt P61353)	0.876 ± 0.026	0.849 ± 0.052	0.807 ± 0.039	0.824 ± 0.053	0.666 ± 0.037	0.842 ± 0.048
J3KR72 and related entries (UniProt P49848)	1.09 ± 0.072	1.07 ± 0.051	1.07 ± 0.043	1.18 ± 0.15	1.11 ± 0.083	1.11 ± 0.037
H3BQM0 and related entries (UniProt Q8NDF8)	1.07 ± 0.064	1.19 ± 0.13	1.28 ± 0.15	1.42 ± 0.05	1.46 ± 0.14	1.62 ± 0.13
M0QYZ2 and related entries (UniProt P53680)	1.07 ± 0.14	1.1 ± 0.056	1.05 ± 0.046	1.02 ± 0.14	1.13 ± 0.056	1.14 ± 0.022

Part of the list above, bar-delimited:
Target | NP40-soluble protein abundance (concentration: 1mM) | NP40-soluble protein abundance (concentration: 2mM) | NP40-soluble protein abundance (concentration: 4mM) | NP40-soluble protein abundance (concentration: 6mM) | NP40-soluble protein abundance (concentration: 8mM) | NP40-soluble protein abundance (concentration: 10mM)
H7C1W4 and related entries (UniProt Q93075+H7C1W4) | 0.984 ± 0.056 | 0.999 ± 0.14 | 1.18 ± 0.15 | 1.15 ± 0.17 | 1.14 ± 0.076 | 1.11 ± 0.024
J3QTA2 and related entries (UniProt Q99933) | 0.999 ± 0.02 | 1.05 ± 0.053 | 1.07 ± 0.096 | 1.07 ± 0.076 | 1.03 ± 0.032 | 1.02 ± 0.053
